Some of the results follow.
Tests used:
Experiment in all cases: glycan array binding signal (z-score within array); higher = stronger binding
Conditions in all cases: glycan notation: IUPAC condensed, linker removed
[1] = molecular target: GlcNAc(b1-4)GlcNAc(b1-4)GlcNAc(b1-4)GlcNAc(b1-4)GlcNAc(b1-4)GlcNAc
Method in brief: (§1)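 Columns mapping to the same glycan were averaged after glycan names were converted to IUPAC-condensed notation. The data come from 3228 arrays in the Consortium for Functional Glycomics database, limited to those with an available protein sequence. Binding is reported as a within-array Z-score averaged across arrays of one protein sequence and across linkers.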

[2] = molecular target: GlcNAc(b1-4)[GlcNAc(b1-6)]GalNAc
Method in brief: as §1

[3] = molecular target: GlcNAc(b1-6)Gal(b1-4)GlcNAc
Method in brief: as §1

[4] = molecular target: GlcNAc(b1-6)GalNAc
Method in brief: as §1

[5] = molecular target: GlcNAc3Prop(b1-4)GlcNAc
Method in brief: as §1

[6] = molecular target: GlcNAc6S(b1-3)Gal(b1-4)GlcNAc
Method in brief: as §1

[7] = molecular target: Kdn(a2-3)Gal(b1-3)GalNAc
Method in brief: as §1

[8] = molecular target: Kdn(a2-3)Gal(b1-3)GlcNAc
Method in brief: as §1

[9] = molecular target: Kdn(a2-3)Gal(b1-4)Glc
Method in brief: as §1

[10] = molecular target: Kdn(a2-3)Gal(b1-4)GlcNAc
Method in brief: as §1

[11] = molecular target: Kdn(a2-3)Gal(b1-4)[Fuc(a1-3)]GlcNAc
Method in brief: as §1

[12] = molecular target: Kdn(a2-6)Gal(b1-4)GlcNAc
Method in brief: as §1

[13] = molecular target: Man(a1-2)Man(a1-2)Man(a1-3)Man
Method in brief: as §1

[14] = molecular target: Man(a1-2)Man(a1-2)Man(a1-6)[Man(a1-3)]Man
Method in brief: as §1

[15] = molecular target: Man(a1-2)Man(a1-3)Man
Method in brief: as §1

[16] = molecular target: Man(a1-2)Man(a1-3)[Man(a1-2)Man(a1-6)]Man
Method in brief: as §1

[17] = molecular target: Man(a1-2)Man(a1-3)[Man(a1-2)Man(a1-6)]Man(a1-6)[Man(a1-2)Man(a1-2)Man(a1-3)]Man
Method in brief: as §1

[18] = molecular target: Man(a1-2)Man(a1-3)[Man(a1-2)Man(a1-6)]Man(a1-6)[Man(a1-2)Man(a1-2)Man(a1-3)]Man(b1-4)GlcNAc(b1-4)GlcNAc
Method in brief: as §1

[19] = molecular target: Man(a1-2)Man(a1-3)[Man(a1-6)]Man(a1-6)[Man(a1-2)Man(a1-3)]Man(b1-4)GlcNAc(b1-4)GlcNAc
Method in brief: as §1

[20] = molecular target: Man(a1-2)Man(a1-6)[Man(a1-3)]Man(a1-6)[Man(a1-2)Man(a1-2)Man(a1-3)]Man
Method in brief: as §1

[21] = molecular target: Man(a1-2)Man(a1-6)[Man(a1-3)]Man(a1-6)[Man(a1-2)Man(a1-2)Man(a1-3)]Man(b1-4)GlcNAc(b1-4)GlcNAc
Method in brief: as §1

[22] = molecular target: Man(a1-3)[Man(a1-6)]Man
Method in brief: as §1

[23] = molecular target: Man(a1-3)[Man(a1-6)]Man(a1-6)[Man(a1-2)Man(a1-3)]Man(b1-4)GlcNAc(b1-4)GlcNAc
Method in brief: as §1

[24] = molecular target: Man(a1-3)[Man(a1-6)]Man(a1-6)[Man(a1-3)]Man
Method in brief: as §1

[25] = molecular target: Man(a1-3)[Man(a1-6)]Man(a1-6)[Man(a1-3)]Man(b1-4)GlcNAc(b1-4)GlcNAc
Method in brief: as §1

[26] = molecular target: Man(a1-3)[Man(a1-6)]Man(b1-4)GlcNAc(b1-4)GlcNAc
Method in brief: as §1

[27] = molecular target: Man(a1-6)Man
Method in brief: as §1

[28] = molecular target: Man(b1-4)GlcNAc
Method in brief: as §1

[29] = molecular target: Neu5Ac(a2-3)Gal
Method in brief: as §1

[30] = molecular target: Neu5Ac(a2-3)Gal(b1-3)GalNAc
Method in brief: as §1

[31] = molecular target: Neu5Ac(a2-3)Gal(b1-3)GalNAc(b1-3)Gal(a1-4)Gal(b1-4)Glc
Method in brief: as §1

[32] = molecular target: Neu5Ac(a2-3)Gal(b1-3)GalNAc(b1-3)Gal(b1-4)GlcNAc
Method in brief: as §1

[33] = molecular target: Neu5Ac(a2-3)Gal(b1-3)GalNAc(b1-4)[Neu5Ac(a2-3)]Gal(b1-4)Glc
Method in brief: as §1

[34] = molecular target: Neu5Ac(a2-3)Gal(b1-3)GalNAc6S
Method in brief: as §1

[35] = molecular target: Neu5Ac(a2-3)Gal(b1-3)GlcNAc
Method in brief: as §1

[36] = molecular target: Neu5Ac(a2-3)Gal(b1-3)GlcNAc(b1-2)Man(a1-3)[Neu5Ac(a2-3)Gal(b1-3)GlcNAc(b1-2)Man(a1-6)]Man(b1-4)GlcNAc(b1-4)GlcNAc
Method in brief: as §1

[37] = molecular target: Neu5Ac(a2-3)Gal(b1-3)GlcNAc(b1-3)Gal(b1-3)GlcNAc
Method in brief: as §1

[38] = molecular target: Neu5Ac(a2-3)Gal(b1-3)GlcNAc(b1-3)Gal(b1-4)GlcNAc
Method in brief: as §1

[39] = molecular target: Neu5Ac(a2-3)Gal(b1-3)GlcNAc(b1-3)GalNAc
Method in brief: as §1

[40] = molecular target: Neu5Ac(a2-3)Gal(b1-3)GlcNAc6S
Method in brief: as §1

[41] = molecular target: Neu5Ac(a2-3)Gal(b1-3)[Fuc(a1-4)]GlcNAc
Method in brief: as §1

[42] = molecular target: Neu5Ac(a2-3)Gal(b1-3)[Fuc(a1-4)]GlcNAc(b1-3)Gal(b1-3)[Fuc(a1-4)]GlcNAc
Method in brief: as §1

[43] = molecular target: Neu5Ac(a2-3)Gal(b1-3)[Fuc(a1-4)]GlcNAc(b1-3)Gal(b1-4)[Fuc(a1-3)]GlcNAc
Method in brief: as §1

[44] = molecular target: Neu5Ac(a2-3)Gal(b1-3)[Neu5Ac(a2-3)Gal(b1-4)]GlcNAc
Method in brief: as §1

[45] = molecular target: Neu5Ac(a2-3)Gal(b1-3)[Neu5Ac(a2-6)]GalNAc
Method in brief: as §1

B1: SBD (Rhizopus oryzae), P07683 (protein)
chain: ASIPSSASVQLDSYNYDGSTFSGKIYVKNIAYSKKVTVVYADGSDNWNNNGNIIAASFSGPISGSNYEYWTFSASVKGIKEFYIKYEVSGKTYYDNNNSANYQVS
With B1 the “glycan array binding signal (z-score)” value [1] was -0.586, the “glycan array binding signal (z-score)” value [2] was 0.143 and the “glycan array binding signal (z-score)” value [3] was -0.42. The “glycan array binding signal (z-score)” value [4] was -1.11, the “glycan array binding signal (z-score)” value [5] was 0.094 and the “glycan array binding signal (z-score)” value [6] was 0.627. For the same binder, the “glycan array binding signal (z-score)” value [7] was 0.62, the “glycan array binding signal (z-score)” value [8] was 0.079 and the “glycan array binding signal (z-score)” value [9] was -0.147. For the same binder, the “glycan array binding signal (z-score)” value [10] was 0.816, the “glycan array binding signal (z-score)” value [11] was -0.022 and the “glycan array binding signal (z-score)” value [12] was -0.009. For the same binder, the “glycan array binding signal (z-score)” value [13] was 5.61, the “glycan array binding signal (z-score)” value [14] was 1.47 and the “glycan array binding signal (z-score)” value [15] was 0.497. For the same binder, the “glycan array binding signal (z-score)” value [16] was 0.064, the “glycan array binding signal (z-score)” value [17] was -0.385 and the “glycan array binding signal (z-score)” value [18] was -0.313. The “glycan array binding signal (z-score)” value [19] was -0.179, the “glycan array binding signal (z-score)” value [20] was -0.171 and the “glycan array binding signal (z-score)” value [21] was -0.011. The “glycan array binding signal (z-score)” value [22] was -0.138, the “glycan array binding signal (z-score)” value [23] was -0.395 and the “glycan array binding signal (z-score)” value [24] was -0.347. For the same binder, the “glycan array binding signal (z-score)” value [25] was -0.313, the “glycan array binding signal (z-score)” value [26] was 0.028 and the “glycan array binding signal (z-score)” value [27] was -0.179. The “glycan array binding signal (z-score)” value [28] was -0.08, the “glycan array binding signal (z-score)” value [29] was -0.41 and the “glycan array binding signal (z-score)” value [30] was -0.148. The “glycan array binding signal (z-score)” value [31] was -0.192, the “glycan array binding signal (z-score)” value [32] was -0.24 and the “glycan array binding signal (z-score)” value [33] was -0.286. For the same binder, the “glycan array binding signal (z-score)” value [34] was -0.155, the “glycan array binding signal (z-score)” value [35] was -0.118 and the “glycan array binding signal (z-score)” value [36] was -1.43. For the same binder, the “glycan array binding signal (z-score)” value [37] was 0.018, the “glycan array binding signal (z-score)” value [38] was -1.29 and the “glycan array binding signal (z-score)” value [39] was 2. For the same binder, the “glycan array binding signal (z-score)” value [40] was -0.348, the “glycan array binding signal (z-score)” value [41] was -0.54 and the “glycan array binding signal (z-score)” value [42] was 0.817. For the same binder, the “glycan array binding signal (z-score)” value [43] was 0.126, the “glycan array binding signal (z-score)” value [44] was -0.212 and the “glycan array binding signal (z-score)” value [45] was -0.178.
